Results: the supplement of paper PMC4604168 (melanoma cell lines)
This is one part of the list. Many values rest on one well or one pass, so single values are uncertain.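 Cells were imaged in 1,536-well plates, and nuclei stained with an antibody against cleaved PARP were counted against all DNA-stained nuclei to give the apoptosis fraction. Screening doses were chosen to leave most cells alive, and resting and induced cleaved-PARP levels differ strongly between cell lines.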

What follows are compounds tested on G361 (assay: cleaved PARP positive nuclei fraction relative to DMSO control; melanoma cells; higher = more apoptosis). Conditions: library dose: low library concentration; 72 h.

Compound	cleaved PARP positive nuclei fraction [%]
NC1(c2ccc(-c3nc4ccn5c(=O)[nH]nc5c4cc3-c3ccccc3)cc2)CCC1 + CO[C@@H]1[C@H](N(C)C(=O)c2ccccc2)C[C@H]2O[C@]1(C)n1c3ccccc3c3c4c(c5c6ccccc6n2c5c31)C(=O)NC4 [Midostaurin] (first compound 0.4 µM, partner dose 0.08 µM)	119
CC1(C)CCC(c2ccc(Cl)cc2)=C(CN2CCN(c3ccc(C(=O)NS(=O)(=O)c4ccc(N[C@H](CCN5CCOCC5)CSc5ccccc5)c(S(=O)(=O)C(F)(F)F)c4)cc3)CC2)C1 + Cn1nnc2c(C(N)=O)ncn2c1=O [temozolomide] (first compound 0.4 µM, partner dose 2 µM)	238
CN(c1ncccc1CNc1nc(Nc2ccc3c(c2)CC(=O)N3)ncc1C(F)(F)F)S(C)(=O)=O + CO[C@@H]1[C@H](N(C)C(=O)c2ccccc2)C[C@H]2O[C@]1(C)n1c3ccccc3c3c4c(c5c6ccccc6n2c5c31)C(=O)NC4 [Midostaurin] (first compound 0.08 µM, partner dose 0.08 µM)	120
Cn1sc(=O)n(Cc2ccccc2)c1=O + c1cc(-c2cnn3cc(-c4ccc(OCCN5CCCCC5)cc4)cnc23)ccn1 [Dorsomorphin] (first compound 0.4 µM, partner dose 0.4 µM)	111
CC(=O)O[C@@]12CO[C@@H]1C[C@H](O)[C@@]1(C)C(=O)[C@H](O)C3=C(C)[C@@H](OC(=O)[C@H](O)[C@@H](NC(=O)OC(C)(C)C)c4ccccc4)C[C@@](O)([C@@H](OC(=O)c4ccccc4)[C@H]21)C3(C)C [Docetaxel] + N#Cc1c(O)c2c(-c3ccc(-c4ccccc4O)cc3)csc2[nH]c1=O [A769662] (first compound 0.0001 µM, partner dose 2 µM)	660
